Measurements from the supplement of paper PMC12067093, “Discovery and optimisation of a covalent ligand for TRIM25 and its application to targeted protein ubiquitination” (Chemical Science, 2025).
The other results are listed elsewhere or left out.

Protein sequences, listed by entry. Tags and fused reporters are not part of them. Lines headed by an entry give the natural chain unless they say otherwise; changes in a name come on top.
UniProt Q8WV16: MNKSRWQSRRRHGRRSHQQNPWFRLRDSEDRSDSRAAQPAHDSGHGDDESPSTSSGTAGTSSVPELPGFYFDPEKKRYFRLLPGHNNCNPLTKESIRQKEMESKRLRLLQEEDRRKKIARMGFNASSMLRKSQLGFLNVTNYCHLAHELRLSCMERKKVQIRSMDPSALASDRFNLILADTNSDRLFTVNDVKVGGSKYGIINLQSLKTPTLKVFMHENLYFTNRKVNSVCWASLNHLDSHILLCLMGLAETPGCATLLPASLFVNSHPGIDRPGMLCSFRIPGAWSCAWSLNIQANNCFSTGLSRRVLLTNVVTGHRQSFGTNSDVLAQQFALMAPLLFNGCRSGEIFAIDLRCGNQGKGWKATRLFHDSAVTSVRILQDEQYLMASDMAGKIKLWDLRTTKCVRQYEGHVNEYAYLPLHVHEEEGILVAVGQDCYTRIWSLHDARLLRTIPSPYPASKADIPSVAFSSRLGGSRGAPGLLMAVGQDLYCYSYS
UniProt Q69YN2: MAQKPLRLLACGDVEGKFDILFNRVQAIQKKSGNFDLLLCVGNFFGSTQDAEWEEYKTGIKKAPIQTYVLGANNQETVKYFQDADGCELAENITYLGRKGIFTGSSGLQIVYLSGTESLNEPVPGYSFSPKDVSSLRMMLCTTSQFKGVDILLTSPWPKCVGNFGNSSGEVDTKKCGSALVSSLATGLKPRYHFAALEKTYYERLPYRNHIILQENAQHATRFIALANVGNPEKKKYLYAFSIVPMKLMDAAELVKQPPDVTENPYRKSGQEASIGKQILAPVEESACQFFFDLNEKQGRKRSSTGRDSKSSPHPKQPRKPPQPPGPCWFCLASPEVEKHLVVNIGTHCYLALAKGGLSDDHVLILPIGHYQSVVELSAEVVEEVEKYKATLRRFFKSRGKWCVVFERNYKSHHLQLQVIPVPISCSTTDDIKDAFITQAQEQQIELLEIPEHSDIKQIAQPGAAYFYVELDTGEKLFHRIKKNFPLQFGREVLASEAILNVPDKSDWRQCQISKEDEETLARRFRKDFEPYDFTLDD
UniProt Q6PI48: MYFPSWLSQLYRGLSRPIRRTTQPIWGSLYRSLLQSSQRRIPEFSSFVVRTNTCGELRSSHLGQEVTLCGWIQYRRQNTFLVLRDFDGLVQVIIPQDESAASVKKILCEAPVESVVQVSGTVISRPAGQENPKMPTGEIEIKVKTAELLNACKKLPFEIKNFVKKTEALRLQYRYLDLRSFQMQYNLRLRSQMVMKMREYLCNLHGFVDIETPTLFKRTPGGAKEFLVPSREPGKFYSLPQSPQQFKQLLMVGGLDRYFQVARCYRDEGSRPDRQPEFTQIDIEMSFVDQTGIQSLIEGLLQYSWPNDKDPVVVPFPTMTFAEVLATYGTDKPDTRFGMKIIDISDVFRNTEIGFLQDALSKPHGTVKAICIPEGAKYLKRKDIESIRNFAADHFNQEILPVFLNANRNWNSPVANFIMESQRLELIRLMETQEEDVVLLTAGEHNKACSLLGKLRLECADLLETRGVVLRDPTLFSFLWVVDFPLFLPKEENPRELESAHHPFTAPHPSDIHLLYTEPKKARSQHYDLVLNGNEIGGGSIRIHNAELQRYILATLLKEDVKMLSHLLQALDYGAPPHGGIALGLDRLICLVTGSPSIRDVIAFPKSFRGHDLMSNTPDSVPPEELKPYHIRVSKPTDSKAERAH
UniProt Q9P0U4, whole entry, looked up: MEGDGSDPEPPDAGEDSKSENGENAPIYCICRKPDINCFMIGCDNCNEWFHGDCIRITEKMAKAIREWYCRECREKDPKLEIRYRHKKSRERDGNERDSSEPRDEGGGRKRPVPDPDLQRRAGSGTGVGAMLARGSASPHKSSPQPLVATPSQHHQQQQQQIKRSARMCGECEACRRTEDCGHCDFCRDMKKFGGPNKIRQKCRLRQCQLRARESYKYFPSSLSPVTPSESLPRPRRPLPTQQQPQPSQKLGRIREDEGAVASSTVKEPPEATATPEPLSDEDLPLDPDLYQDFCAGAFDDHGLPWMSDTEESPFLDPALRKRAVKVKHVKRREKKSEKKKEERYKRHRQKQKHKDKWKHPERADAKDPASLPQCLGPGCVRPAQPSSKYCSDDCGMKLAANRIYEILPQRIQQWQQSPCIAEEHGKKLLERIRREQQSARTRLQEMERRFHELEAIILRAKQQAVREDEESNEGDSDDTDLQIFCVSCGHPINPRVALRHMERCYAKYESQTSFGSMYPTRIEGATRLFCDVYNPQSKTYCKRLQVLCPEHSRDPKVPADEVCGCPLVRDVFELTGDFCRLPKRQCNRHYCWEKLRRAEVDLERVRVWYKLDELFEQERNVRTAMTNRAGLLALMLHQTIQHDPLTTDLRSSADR
UniProt Q9HAI6: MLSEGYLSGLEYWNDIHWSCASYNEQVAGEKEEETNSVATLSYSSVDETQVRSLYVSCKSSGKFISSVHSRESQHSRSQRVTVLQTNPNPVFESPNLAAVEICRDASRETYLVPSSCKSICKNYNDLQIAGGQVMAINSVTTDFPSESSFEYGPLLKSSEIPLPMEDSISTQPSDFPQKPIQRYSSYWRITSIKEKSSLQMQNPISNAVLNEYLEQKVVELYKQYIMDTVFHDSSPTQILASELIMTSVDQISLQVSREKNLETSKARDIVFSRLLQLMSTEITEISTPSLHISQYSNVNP
UniProt Q13620, whole entry, looked up: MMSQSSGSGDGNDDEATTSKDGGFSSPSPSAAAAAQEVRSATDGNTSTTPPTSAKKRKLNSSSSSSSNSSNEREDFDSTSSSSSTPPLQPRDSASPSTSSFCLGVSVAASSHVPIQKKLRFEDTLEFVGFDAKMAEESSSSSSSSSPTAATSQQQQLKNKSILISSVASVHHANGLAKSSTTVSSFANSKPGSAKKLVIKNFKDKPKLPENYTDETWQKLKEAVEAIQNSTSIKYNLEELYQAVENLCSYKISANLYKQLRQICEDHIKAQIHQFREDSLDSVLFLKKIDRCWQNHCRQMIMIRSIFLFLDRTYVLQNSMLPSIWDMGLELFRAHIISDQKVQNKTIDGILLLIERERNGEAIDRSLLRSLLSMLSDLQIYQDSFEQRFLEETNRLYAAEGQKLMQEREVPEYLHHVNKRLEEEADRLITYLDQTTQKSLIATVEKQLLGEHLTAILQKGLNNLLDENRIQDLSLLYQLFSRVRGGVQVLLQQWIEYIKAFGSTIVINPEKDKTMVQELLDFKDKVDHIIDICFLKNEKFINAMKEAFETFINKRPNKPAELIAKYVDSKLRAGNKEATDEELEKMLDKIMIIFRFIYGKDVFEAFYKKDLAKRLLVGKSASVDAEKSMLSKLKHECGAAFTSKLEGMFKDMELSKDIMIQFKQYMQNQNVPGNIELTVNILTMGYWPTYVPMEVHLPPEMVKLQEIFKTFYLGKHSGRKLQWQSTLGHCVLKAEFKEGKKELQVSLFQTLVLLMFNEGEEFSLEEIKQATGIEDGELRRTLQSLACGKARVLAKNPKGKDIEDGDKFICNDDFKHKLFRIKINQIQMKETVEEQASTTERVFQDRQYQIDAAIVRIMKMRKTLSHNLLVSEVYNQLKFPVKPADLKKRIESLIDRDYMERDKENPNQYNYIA
UniProt Q5VU92: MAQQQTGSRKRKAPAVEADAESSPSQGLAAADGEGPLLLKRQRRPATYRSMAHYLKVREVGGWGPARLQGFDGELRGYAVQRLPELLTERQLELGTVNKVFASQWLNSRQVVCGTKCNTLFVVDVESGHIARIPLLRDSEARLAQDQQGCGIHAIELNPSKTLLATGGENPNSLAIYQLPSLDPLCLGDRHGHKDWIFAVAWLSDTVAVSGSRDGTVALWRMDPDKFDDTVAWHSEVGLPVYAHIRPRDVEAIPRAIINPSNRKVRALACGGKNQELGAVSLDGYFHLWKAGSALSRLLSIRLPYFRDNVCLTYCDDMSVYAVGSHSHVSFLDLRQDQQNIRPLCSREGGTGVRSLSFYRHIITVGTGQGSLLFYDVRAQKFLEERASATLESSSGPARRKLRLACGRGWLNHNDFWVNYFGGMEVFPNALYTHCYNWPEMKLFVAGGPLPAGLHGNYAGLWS
UniProt Q9Y4B6: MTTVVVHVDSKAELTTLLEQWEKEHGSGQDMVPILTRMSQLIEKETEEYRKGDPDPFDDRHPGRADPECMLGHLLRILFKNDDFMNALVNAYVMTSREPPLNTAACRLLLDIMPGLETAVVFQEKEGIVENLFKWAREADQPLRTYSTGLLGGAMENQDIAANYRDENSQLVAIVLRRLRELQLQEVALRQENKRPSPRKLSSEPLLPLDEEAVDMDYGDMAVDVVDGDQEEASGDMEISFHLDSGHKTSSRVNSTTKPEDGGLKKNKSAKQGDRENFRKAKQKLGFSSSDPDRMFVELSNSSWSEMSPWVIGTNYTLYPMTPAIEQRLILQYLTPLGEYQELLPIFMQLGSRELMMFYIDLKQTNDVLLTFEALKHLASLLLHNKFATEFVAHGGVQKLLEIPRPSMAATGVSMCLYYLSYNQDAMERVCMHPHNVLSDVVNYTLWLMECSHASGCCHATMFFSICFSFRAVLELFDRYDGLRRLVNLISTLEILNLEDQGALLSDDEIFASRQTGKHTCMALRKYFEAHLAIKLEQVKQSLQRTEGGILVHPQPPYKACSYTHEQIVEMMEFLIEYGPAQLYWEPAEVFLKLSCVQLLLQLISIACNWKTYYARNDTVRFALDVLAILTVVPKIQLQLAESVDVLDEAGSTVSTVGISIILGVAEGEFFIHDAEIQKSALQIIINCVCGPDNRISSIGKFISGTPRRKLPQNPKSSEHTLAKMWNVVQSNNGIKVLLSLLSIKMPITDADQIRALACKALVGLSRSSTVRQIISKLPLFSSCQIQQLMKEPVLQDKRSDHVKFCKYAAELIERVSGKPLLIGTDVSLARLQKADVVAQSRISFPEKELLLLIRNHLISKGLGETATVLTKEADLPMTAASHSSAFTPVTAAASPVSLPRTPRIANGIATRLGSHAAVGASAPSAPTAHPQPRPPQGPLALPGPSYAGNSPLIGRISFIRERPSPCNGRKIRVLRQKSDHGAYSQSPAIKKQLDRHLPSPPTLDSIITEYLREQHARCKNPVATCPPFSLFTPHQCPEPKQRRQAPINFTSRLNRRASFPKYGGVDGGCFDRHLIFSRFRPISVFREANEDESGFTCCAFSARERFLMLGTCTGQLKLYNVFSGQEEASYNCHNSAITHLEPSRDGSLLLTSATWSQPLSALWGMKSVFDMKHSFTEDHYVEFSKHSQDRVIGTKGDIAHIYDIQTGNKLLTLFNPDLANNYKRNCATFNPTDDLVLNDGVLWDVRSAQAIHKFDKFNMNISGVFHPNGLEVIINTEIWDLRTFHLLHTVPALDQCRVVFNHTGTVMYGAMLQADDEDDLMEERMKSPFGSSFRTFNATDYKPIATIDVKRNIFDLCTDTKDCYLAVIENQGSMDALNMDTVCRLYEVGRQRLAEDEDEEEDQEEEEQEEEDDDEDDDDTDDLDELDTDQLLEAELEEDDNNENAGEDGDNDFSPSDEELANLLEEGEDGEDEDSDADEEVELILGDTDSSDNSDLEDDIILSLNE
UniProt P08574: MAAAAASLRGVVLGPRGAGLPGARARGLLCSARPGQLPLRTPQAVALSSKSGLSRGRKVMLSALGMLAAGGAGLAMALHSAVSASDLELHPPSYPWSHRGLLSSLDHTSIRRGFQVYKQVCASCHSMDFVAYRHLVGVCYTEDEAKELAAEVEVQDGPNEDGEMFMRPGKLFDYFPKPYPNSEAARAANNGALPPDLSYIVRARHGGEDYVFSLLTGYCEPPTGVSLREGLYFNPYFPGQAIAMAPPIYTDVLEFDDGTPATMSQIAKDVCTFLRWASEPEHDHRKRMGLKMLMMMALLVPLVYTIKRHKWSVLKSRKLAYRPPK

Compound: CC1Cc2ccccc2N1C(=O)C1CCCN(C1)C(=O)CCl (mixture of isomers) [TRIM25 ligand 11 (diastereomer mixture)]
Assay: probe-labelled cysteine peptide fold change vs DMSO (competition) (log2 fold change); higher = less target engagement (more negative = stronger competition)
Conditions: THP-1, incubation time: 4 h
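Note: competitive chemoproteomic profiling in live THP-1 cells with an iodoacetamide desthiobiotin (IA-DTB) probe, comparing probe-labelled peptide intensities in compound-treated cells against DMSO-treated controls.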

| Target | probe-labelled cysteine peptide fold change (10 µM) | probe-labelled cysteine peptide fold change (50 µM) |
| --- | --- | --- |
| DCTN1_Q14203_830_MPGTDAPGIPAALAFGPQVSDTLLDCR (UniProt Q14203) | 0.37 | 0.305 |
| CXorf38_Q8TB03_24_AGHCLLLLR (UniProt Q8TB03) | -0.198 | -0.0361 |
| DCAF4_Q8WV16_143_SQLGFLNVTNYCHLAHELR (UniProt Q8WV16) | 0.256 | 0.254 |
| CWF19L1_Q69YN2_288_QILAPVEESACQFFFDLNEK (UniProt Q69YN2) | 0.325 | 0.0173 |
| DARS2_Q6PI48_590_LICLVTGSPSIR (UniProt Q6PI48) | 0.223 | 0.379 |
| CWF19L1_Q69YN2_11_LLACGDVEGK (UniProt Q69YN2) | 0.171 | -0.0951 |
| CXXC1_Q9P0U4_175_MCGECEACR (UniProt Q9P0U4) | -0.0677 | 0.209 |
| DCAF12_Q5T6F0_253_EDTNPDNCK (UniProt Q5T6F0) | -0.0756 | -0.0409 |
| CXorf21_Q9HAI6_117_ETYLVPSSCK (UniProt Q9HAI6) | -0.124 | -0.315 |
| CXXC1_Q9P0U4_38_KPDINCFMIGCDNCNEWFHGDCIR (UniProt Q9P0U4) | -0.196 | -0.0436 |
| CUL4B_Q13620_297_CWQNHCR (UniProt Q13620) | 0.0567 | 0.295 |
| DCAF12L1_Q5VU92_150_LAQDQQGCGIHAIELNPSK (UniProt Q5VU92) | 0.0184 | -0.0204 |
| DCAF1_Q9Y4B6_69_ADPECMLGHLLR (UniProt Q9Y4B6) | 0.0618 | -0.0373 |
| CYC1_P08574_219_HGGEDYVFSLLTGYCEPPTGVSLR (UniProt P08574) | 0.111 | 0.164 |

Part of the list above, as tab-separated lines:
Target	probe-labelled cysteine peptide fold change (10 µM)	probe-labelled cysteine peptide fold change (50 µM)
CXXC1_Q9P0U4_175_MCGECEACR (UniProt Q9P0U4)	-0.0677	0.209
CXorf21_Q9HAI6_117_ETYLVPSSCK (UniProt Q9HAI6)	-0.124	-0.315
DCAF12L1_Q5VU92_150_LAQDQQGCGIHAIELNPSK (UniProt Q5VU92)	0.0184	-0.0204
DCAF1_Q9Y4B6_69_ADPECMLGHLLR (UniProt Q9Y4B6)	0.0618	-0.0373
